# Assay results taken from patent US20250186469A1, “THERAPEUTIC AGENT FOR OVARIAN CLEAR CELL CARCINOMA” (JSR CORPORATION, priority 2022, published 2025).
# For at least one compound, name, drawing or mass did not settle the structure.
# What was measured:
# [1] = test system: clear cell carcinoma organoids; assay: High-throughput drug screening (HTDS) using compound library, ATP activity; assay type: cell-based, human; conditions: drug 1 μM added on the 3rd day, ATP activity detected on the 5th day
# [2] = test system: ovarian clear cell carcinoma organoid; assay: Sensitivity test of ovarian clear cell carcinoma organoid (cell viability by ATP activity); assay type: cell-based, human; conditions: exposed for 3 days at 0.0001 to 10 μM, FIGS. 13, 14, 17
# Experimental: Based on the above-described results of HTDS, the test focused on the proteasome inhibitors that were found with multiple hits among the 9 hit compounds. A proteasome inhibitor (bortezomib, carfilzomib, and ixazomib), a microtubule inhibitor (paclitaxel), and a platinum formulation (cisplatin and carboplatin) were prepared at each of final concentrations of 0.0001 μM, 0.001 µM, 0.01 μM, 0.1 μM, 1 μM, and 10 μM, the ovarian clear cell carcinoma organoid was exposed to each of the concentrations for 3 days, and the cell viability was measured by measuring the ATP activity.
# FIGS. 13 and 14 show graphic views of the results of the measured cell viabilities.
# For the CDK 1, 2, 5, and 9 inhibitor (dinaciclib) that was hit in the 9 compounds that were hit more in HTDS, the cell viability was measured by measuring an ATP activity in the same manner as in Experimental Example 8.
compound,measurement,setting,value
CCc1cnn2c(NCc3ccc[n+]([O-])c3)cc(N3CCCC[C@H]3CCO)nc12 [dinaciclib],HTDS hit,[1],hit
same,cell viability,[2],decreased depending on the concentration
